# Assay results as given in paper PMC6831302.
# Chains of the proteins cited; added tags and fusions are not shown.
# UniProt P49841: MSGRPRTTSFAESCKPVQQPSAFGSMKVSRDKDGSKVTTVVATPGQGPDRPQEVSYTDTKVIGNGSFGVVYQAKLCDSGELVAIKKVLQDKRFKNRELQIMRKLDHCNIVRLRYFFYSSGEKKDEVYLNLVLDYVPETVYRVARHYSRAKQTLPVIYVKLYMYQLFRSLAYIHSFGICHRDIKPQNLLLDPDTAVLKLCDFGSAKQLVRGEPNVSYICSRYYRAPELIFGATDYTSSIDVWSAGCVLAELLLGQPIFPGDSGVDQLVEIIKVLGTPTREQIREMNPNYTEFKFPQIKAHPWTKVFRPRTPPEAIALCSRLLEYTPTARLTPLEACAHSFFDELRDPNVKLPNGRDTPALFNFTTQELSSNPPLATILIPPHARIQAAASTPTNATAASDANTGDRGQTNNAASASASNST
# UniProt P07355: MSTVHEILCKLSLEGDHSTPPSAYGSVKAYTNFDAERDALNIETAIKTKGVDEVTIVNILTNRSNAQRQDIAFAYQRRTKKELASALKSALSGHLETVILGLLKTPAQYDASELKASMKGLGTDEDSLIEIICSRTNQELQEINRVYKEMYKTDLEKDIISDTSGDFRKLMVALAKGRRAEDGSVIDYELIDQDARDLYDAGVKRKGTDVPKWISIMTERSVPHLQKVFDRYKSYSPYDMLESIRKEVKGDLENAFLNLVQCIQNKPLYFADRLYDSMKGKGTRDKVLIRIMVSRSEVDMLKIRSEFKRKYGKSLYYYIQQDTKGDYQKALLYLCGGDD
# Results are given in words; binding and its absence hold for the method and conditions named. In cells and extracts the contact can be indirect. Some entries that bind do so weakly or less than the wild type.
# Molecular target: glycogen synthase kinase 3β (human (endogenous in MCF-7 and MDA-MB-231)) (UniProt P49841)
# Assay: co-IP; LncCCAT1-overexpressing MCF-7 cells and LncCCAT1-knockdown MDA-MB-231 cells; which protein was precipitated is not told in the text shown
substance,measurement,value
Annexin A2 (from UniProt P07355 1-339),binding,binds
